Measurements reported in PubChem BioAssay (NCATS).
The shares of active, inactive and inconclusive entries below differ from those in the screen. A potency beside an inconclusive call is a rough fit, not a confirmed value. The source made the active and inactive calls. Calls come from the whole dose curve; as a rule, active = well fitted cell-killing curve with a large enough effect; inconclusive = small, poorly fitted or top-dose-only effect, or effect the other way; inactive = no such curve, though single readings can be large or run the other way.

Tests used:
[1] = Quantitative High-Throughput drug screen in 47 multiple myeloma cell lines against the NCATS MIPE library collection: FR4_PLB cell viability assay (AID 1918924; note: nearly all actives have a fitted effect of over 35% in size); details: FR4_PLB myeloma cells viability, CellTiter-Glo ATP, 48 h; series mostly up to 45.8 µM
Method in brief: (§1)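 Luminescent ATP measurement with CellTiter-Glo gives viability, scaled between DMSO-only wells (100%) and media-only wells (0%). Cells, 500 per well, faced library compounds for 48 hours at 37C.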

[2] = Quantitative High-Throughput drug screen in 47 multiple myeloma cell lines against the NCATS MIPE library collection: Delta47_JCRB cell viability assay (AID 1918925; note: nearly all actives have a fitted effect of over 45% in size); details: Delta47 myeloma viability, CellTiter-Glo ATP, 48 h; viability (% of DMSO): at 45.8 µM (top of the series) unless noted
Method in brief: as §1

[3] = Quantitative High-Throughput drug screen in 47 multiple myeloma cell lines against the NCATS MIPE library collection: EJM_DSMZ cell viability assay (AID 1918926; note: nearly all actives have a fitted effect of over 30% in size); details: EJM myeloma cell viability, CellTiter-Glo ATP, 48 h; series mostly up to 45.8 µM
Method in brief: as §1

[4] = Quantitative High-Throughput drug screen in 47 multiple myeloma cell lines against the NCATS MIPE library collection: ARP1_JJKsccF8 cell viability assay (AID 1918928; note: nearly all actives have a fitted effect of over 40% in size); details: ARP1 myeloma cells viability, CellTiter-Glo ATP, 48 h; viability: at 45.8 µM (top of the series)
Method in brief: (§2)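 Myeloma cells, 500 per well, were exposed to MIPE 4.0 drugs by pin transfer for 48 h at 37 °C, 5% CO2. Viability was read as ATP luminescence with CellTiter-Glo, normalised to DMSO-only (100%) and medium-only (0%) wells.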

[5] = Quantitative High-Throughput drug screen in 47 multiple myeloma cell lines against the NCATS MIPE library collection: ARD_JJKsccE7 cell viability assay (AID 1918929)
Method in brief: as §1

[6] = Quantitative High-Throughput drug screen in 47 multiple myeloma cell lines against the NCATS MIPE library collection: KMM1_JCRB cell viability assay (AID 1918960); details: KMM1 myeloma viability, CellTiter-Glo ATP luminescence, 48 h; viability (% of DMSO): at 45.8 µM (top of the series); note: nearly all actives have a fitted effect of over 30% in size
Method in brief: as §2

[7] = Quantitative High-Throughput drug screen in 47 multiple myeloma cell lines against the NCATS MIPE library collection: KHM11_PLB cell viability assay (AID 1918962); details: KHM11 myeloma cell viability, CellTiter-Glo ATP luminescence, 48 h; series mostly up to 45.8 µM; note: nearly all actives have a fitted effect of over 35% in size
Method in brief: as §1

[8] = Quantitative High-Throughput drug screen in 47 multiple myeloma cell lines against the NCATS MIPE library collection: Karpas620_DSMZ cell viability assay (AID 1918959); note: nearly all actives have a fitted effect of over 30% in size
Method in brief: as §1

[9] = Quantitative High-Throughput drug screen in 47 multiple myeloma cell lines against the NCATS MIPE library collection: Karpas417_ECACC cell viability assay (AID 1918961); details: Karpas417 myeloma viability, CellTiter-Glo ATP luminescence, 48 h; viability (% of DMSO): at 45.8 µM (top of the series) unless noted
Method in brief: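 Steps: seed 500 cells per well; pin-transfer MIPE 4.0 library; incubate 48 h at 37C, 5% CO2, humidified; add CellTiter-Glo, 5 min room temperature; read luminescence.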

[10] = Quantitative High-Throughput drug screen in 47 multiple myeloma cell lines against the NCATS MIPE library collection: AMO1_DSMZ cell viability assay (AID 1918927; note: nearly all actives have a fitted effect of over 30% in size)
Method in brief: as §1
Potency is the fitted concentration of half-maximal effect.

Structure (SMILES)	Potency [1]	Potency [2]	Potency [3]	Potency [4]	Potency [5]	Potency [6]	Potency [7]	Potency [8]	Potency [9]	Potency [10]
Cc1cc(C(=O)NOCCO)c(Nc2ccc(I)cc2F)n(C)c1=O	inconclusive: 0.0026 µM [cytotoxic, full curve, poor fit]	inconclusive: 33.2 µM [cytotoxic, single point]	inactive	inconclusive: 0.0166 µM [cytotoxic, full curve, poor fit]	inconclusive: 0.0017 µM [cytotoxic, full curve, poor fit]	inconclusive: 0.0166 µM [cytotoxic, full curve]	inconclusive: 0.0021 µM [cytotoxic, full curve]	–	–	–
CC[C@@H]1C=C(C)C[C@H](C)C[C@H](OC)[C@H]2O[C@@](O)(C(=O)C(=O)N3CCCC[C@@H]3C(=O)O[C@H](C(C)=C[C@@H]3CC[C@H](Cl)[C@H](OC)C3)[C@H](C)[C@@H](O)CC1=O)[C@H](C)C[C@H]2OC	inconclusive: 18.7 µM [cytotoxic, partial curve]	active: 16.6 µM	inconclusive: 16.6 µM [cytotoxic, partial curve, poor fit]	–	inconclusive: 7.43 µM [cytotoxic, full curve]	–	inconclusive: 0.0187 µM [rising, full curve]	active: 13.2 µM	inconclusive: 7.43 µM [cytotoxic, partial curve, poor fit]	–
CN(C)CC[C@H](CSc1ccccc1)Nc1ccc(S(=O)(=O)NC(=O)c2ccc(N3CCN(Cc4ccccc4-c4ccc(Cl)cc4)CC3)cc2)cc1[N+](=O)[O-]	inconclusive: 23.5 µM [cytotoxic, partial curve, poor fit]	inconclusive: 18.7 µM [cytotoxic, partial curve, poor fit]	active: 5.9 µM	–	–	active: 4.69 µM	active: 5.26 µM	–	active: 0.0935 µM	inconclusive: 8.33 µM [cytotoxic, full curve]
CO[C@H]1C[C@@H]2CC[C@@H](C)[C@@](O)(O2)C(=O)C(=O)N2CCCC[C@@H]2C(=O)O[C@H]([C@H](C)C[C@@H]2CC[C@H](OC(=O)C(C)(CO)CO)[C@H](OC)C2)CC(=O)[C@H](C)C=C(C)[C@@H](O)[C@@H](OC)C(=O)[C@H](C)C[C@H](C)C=CC=CC=C1C	inconclusive: 26.4 µM [cytotoxic, single point]	inconclusive: 10.5 µM [cytotoxic, partial curve]	inconclusive: 29.6 µM [cytotoxic, partial curve]	–	inconclusive: 26.4 µM [cytotoxic, single point]	–	inconclusive: 29.6 µM [cytotoxic, single point]	active: 9.35 µM	inconclusive: 4.18 µM [cytotoxic, partial curve]	inconclusive: 20.9 µM [cytotoxic, partial curve]
CCOC(=O)N[C@@H]1CC[C@@H]2[C@@H](C1)C[C@H]1C(=O)O[C@H](C)[C@H]1[C@@H]2C=Cc1ccc(-c2cccc(F)c2)cn1	inconclusive: 20.9 µM [cytotoxic, partial curve]	inconclusive: 33.2 µM [cytotoxic, single point]	inconclusive: 33.2 µM [cytotoxic, single point]	–	–	inconclusive: 4.69 µM [cytotoxic, full curve]	inconclusive: 23.5 µM [rising, partial curve, poor fit]	inconclusive: 20.9 µM [cytotoxic, partial curve]	inconclusive: 20.9 µM [cytotoxic, partial curve, poor fit]	–
COc1cc(C(C)=O)ccc1OCCCN1CCC(c2noc3cc(F)ccc23)CC1	inconclusive: 23.5 µM [cytotoxic, partial curve, poor fit]	inconclusive: 37.2 µM [cytotoxic, single point]	–	inconclusive: 16.6 µM [cytotoxic, partial curve]	inconclusive: 20.9 µM [cytotoxic, partial curve, poor fit]	inconclusive: 20.9 µM [cytotoxic, partial curve, poor fit]	inconclusive: 37.2 µM [cytotoxic, single point]	inconclusive: 37.2 µM [cytotoxic, single point]	inconclusive: 0.0037 µM [cytotoxic, full curve, poor fit]	inconclusive: 23.5 µM [cytotoxic, partial curve]
CCC(C)N(C)C(=O)c1cc2ccccc2c(-c2ccccc2Cl)n1 (centres undefined)	inactive	inactive	inactive	–	inconclusive: 33.2 µM [cytotoxic, partial curve, poor fit]	inconclusive: 20.9 µM [cytotoxic, partial curve]	inactive	inconclusive: 20.9 µM [cytotoxic, partial curve]	inconclusive: 0.235 µM [cytotoxic, full curve, poor fit]	inconclusive: 33.2 µM [cytotoxic, partial curve]
